# This is one part of the list.
# Legend:
# Experiment in all cases: glycan array binding signal (z-score within array); higher = stronger binding
# Conditions in all cases: glycan notation: IUPAC condensed, linker removed
# [1] = target: Gal3S(b1-4)Glc6S
# In short: (§1)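 The binding signal is a Z-score computed within each array and averaged over linkers. Arrays of the same protein sequence at different concentrations or buffers were also averaged together. Data originate from 3228 arrays in the Consortium for Functional Glycomics database, kept only where the protein sequence was available.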
# [2] = target: Gal3S(b1-4)GlcNAc
# In short: as §1
# [3] = target: Gal3S(b1-4)[Fuc(a1-3)]Glc6S
# In short: as §1
# [4] = target: Gal3S(b1-4)[Fuc(a1-3)]GlcNAc
# In short: as §1
# [5] = target: Gal3S(b1-4)[Fuc(a1-3)]GlcNAc6S
# In short: as §1
# [6] = target: Gal3S4S(b1-4)GlcNAc
# In short: as §1
# [7] = target: Gal3S6S(b1-4)GlcNAc
# In short: as §1
# [8] = target: Gal3S6S(b1-4)GlcNAc6S
# In short: as §1
# [9] = target: Gal4S(b1-4)GlcNAc
# In short: as §1
# [10] = target: Gal4S6S(b1-4)GlcNAc
# In short: as §1
# [11] = target: Gal6P(b1-4)GlcNAc
# In short: as §1
# [12] = target: Gal6S(b1-3)GlcNAc
# In short: as §1
# [13] = target: Gal6S(b1-3)GlcNAc6S
# In short: as §1
# [14] = target: Gal6S(b1-4)Glc
# In short: as §1
# [15] = target: Gal6S(b1-4)Glc6S
# In short: as §1
# [16] = target: Gal6S(b1-4)GlcNAc
# In short: as §1
# [17] = target: Gal6S(b1-4)GlcNAc6S
# In short: as §1
# [18] = target: GalNAc(a1-3)Gal
# In short: as §1
# [19] = target: GalNAc(a1-3)GalNAc
# In short: as §1
# [20] = target: GalNAc(a1-3)GalNAc(a1-3)Gal(a1-4)Gal(b1-4)GlcNAc
# In short: as §1
# [21] = target: GalNAc(a1-3)GalNAc(b1-3)Gal(a1-4)Gal(b1-4)Glc
# In short: as §1
# [22] = target: GalNAc(b1-3)Gal
# In short: as §1
# [23] = target: GalNAc(b1-3)Gal(a1-4)Gal(b1-4)GlcNAc
# In short: as §1
# [24] = target: GalNAc(b1-3)Gal(a1-4)Gal(b1-4)GlcNAc(b1-3)Gal(b1-4)Glc
# In short: as §1
# [25] = target: GalNAc(b1-3)Gal(a1-6)Gal(b1-4)Glc
# In short: as §1
# [26] = target: GalNAc(b1-3)GalNAc
# In short: as §1
# [27] = target: GalNAc(b1-3)GlcNAc
# In short: as §1
# [28] = target: GalNAc(b1-4)Gal(b1-4)Glc
# In short: as §1
# [29] = target: GalNAc(b1-4)GlcNAc
# In short: as §1
# [30] = target: GalNAc(b1-4)GlcNAc(b1-2)Man
# In short: as §1
# [31] = target: GalNAc(b1-4)GlcNAc(b1-2)Man(a1-3)[GalNAc(b1-4)GlcNAc(b1-2)Man(a1-6)]Man(b1-4)GlcNAc(b1-4)GlcNAc
# In short: as §1
# [32] = target: GalNAc(b1-4)GlcNAc(b1-3)GalNAc(b1-4)GlcNAc
# In short: as §1
# [33] = target: GalNAc(b1-4)GlcNAc6S
# In short: as §1
# [34] = target: GalNAc(b1-6)GalNAc
# In short: as §1
# [35] = target: GalNAc3S(b1-4)GlcNAc
# In short: as §1
# [36] = target: GalNAc3S(b1-4)GlcNAc3S
# In short: as §1
# [37] = target: GalNAc3S(b1-4)[Fuc(a1-3)]GlcNAc
# In short: as §1
# [38] = target: GalNAc4S6S(b1-4)GlcNAc
# In short: as §1
# [39] = target: GalNAc6S(b1-4)GlcNAc
# In short: as §1
# [40] = target: Glc(a1-4)Glc
# In short: as §1
# [41] = target: Glc(a1-4)Glc(a1-4)Glc(a1-4)Glc
# In short: as §1
# [42] = target: Glc(a1-6)Glc(a1-6)Glc
# In short: as §1
# [43] = target: Glc(a1-6)Glc(a1-6)Glc(a1-6)Glc
# In short: as §1
# [44] = target: Glc(b1-4)Glc
# In short: as §1
# [45] = target: Glc(b1-6)Glc
# In short: as §1
# [46] = target: GlcA(b1-3)Gal
# In short: as §1
# [47] = target: GlcA(b1-3)GlcNAc
# In short: as §1
# [48] = target: GlcA(b1-6)Gal
# In short: as §1
# [49] = target: GlcA3S(b1-3)Gal(b1-4)GlcNAc(b1-2)Man
# In short: as §1
# [50] = target: GlcA3S(b1-3)Gal(b1-4)GlcNAc(b1-3)Gal(b1-4)Glc
# In short: as §1
# [51] = target: GlcNAc(a1-3)Gal(b1-4)GlcNAc
# In short: as §1
# [52] = target: GlcNAc(a1-4)Gal(b1-3)GlcNAc
# In short: as §1
# [53] = target: GlcNAc(a1-4)Gal(b1-4)GalNAc
# In short: as §1
# [54] = target: GlcNAc(a1-4)Gal(b1-4)GlcNAc
# In short: as §1
# [55] = target: GlcNAc(a1-4)Gal(b1-4)GlcNAc(b1-3)Gal(b1-4)Glc
# In short: as §1
# [56] = target: GlcNAc(a1-4)Gal(b1-4)GlcNAc(b1-3)Gal(b1-4)GlcNAc
# In short: as §1
# [57] = target: GlcNAc(a1-4)Gal(b1-4)GlcNAc(b1-3)Gal(b1-4)GlcNAc(b1-3)Gal(b1-4)GlcNAc
# In short: as §1
# [58] = target: GlcNAc(a1-4)Gal(b1-4)GlcNAc(b1-3)Gal(b1-4)[Fuc(a1-3)]GlcNAc(b1-3)Gal(b1-4)[Fuc(a1-3)]GlcNAc
# In short: as §1
# [59] = target: GlcNAc(a1-6)Gal(b1-4)GlcNAc
# In short: as §1
# [60] = target: GlcNAc(b1-2)Gal(b1-3)GalNAc
# In short: as §1
binder,measurement,setting,value
Blon0732mut (Bifidobacterium longum) (protein) MPTSEHKADDATRHLTLIPAPVTLEYTHGTALIGPLVTIEDADQSWETLPIEQLSDELRHRYGVTVLRRRTHGTVISLGLDSRLAHDEYTLDVSESEGIRVRGGGESGLRYGLQTLRQIIGQTSRAIPCLHIQDKPAFAVRAYSLDVTRGRVPTMEFLTWFVDQLALYKYNQFQLYVEHAFAFVELSEAWRGTDPLTAADITYLDEYCARRGIELVPSLATFGHMYMNLRTREHRGLGEFPEDADRPFSFIERMEHHTLNAADPKAHDFASRLIEEYAPLFRSKSFNIGGNETFDLGRGRSAQDAPEAGRDELYAGFVRDLCETLARHGRQPMLWADIALESPRTMDLLPGDITMLNWMYEPQIDESKIQTIATQGRRQFVCPAVRAWSRFFPDYAGAWLNTYHMALAGTKYDAEGMVVTDWGDYGHVNDPRLSVPGLCYGAQNAWNPIEIDAHEMNRRISALVYGDESGRIMDCLARIDSDGVSFPWDLAVQVLELEYGSGTGALNMDVAACMERSSGGKLTLDRTLGCDDARRRMLQWNRERIERRRDCDQVLRDCGDAFAGLDKGGLTAEFLSVMLDGQRLFNELGEELLALADGKDVGSGANRLAADLELWFERYRAQWLSVGRHAELARIAHVVWSLADILRRGAL,glycan array binding signal (z-score),[1],0.627
same,glycan array binding signal (z-score),[2],-0.019
same,glycan array binding signal (z-score),[3],4.3
same,glycan array binding signal (z-score),[4],3.42
same,glycan array binding signal (z-score),[5],0.844
same,glycan array binding signal (z-score),[6],-0.559
same,glycan array binding signal (z-score),[7],2.19
same,glycan array binding signal (z-score),[8],1.8
same,glycan array binding signal (z-score),[9],0.426
same,glycan array binding signal (z-score),[10],2.26
same,glycan array binding signal (z-score),[11],0.616
same,glycan array binding signal (z-score),[12],-0.605
same,glycan array binding signal (z-score),[13],-0.273
same,glycan array binding signal (z-score),[14],-0.046
same,glycan array binding signal (z-score),[15],0.094
same,glycan array binding signal (z-score),[16],-0.307
same,glycan array binding signal (z-score),[17],0.168
same,glycan array binding signal (z-score),[18],-0.61
same,glycan array binding signal (z-score),[19],-1.12
same,glycan array binding signal (z-score),[20],-0.192
same,glycan array binding signal (z-score),[21],-0.247
same,glycan array binding signal (z-score),[22],-0.773
same,glycan array binding signal (z-score),[23],0.521
same,glycan array binding signal (z-score),[24],-0.195
same,glycan array binding signal (z-score),[25],-0.574
same,glycan array binding signal (z-score),[26],0.297
same,glycan array binding signal (z-score),[27],-0.332
same,glycan array binding signal (z-score),[28],-1.33
same,glycan array binding signal (z-score),[29],0.772
same,glycan array binding signal (z-score),[30],0.028
same,glycan array binding signal (z-score),[31],0.115
same,glycan array binding signal (z-score),[32],-0.58
same,glycan array binding signal (z-score),[33],-0.46
same,glycan array binding signal (z-score),[34],0.083
same,glycan array binding signal (z-score),[35],-0.952
same,glycan array binding signal (z-score),[36],-0.895
same,glycan array binding signal (z-score),[37],0.779
same,glycan array binding signal (z-score),[38],-0.816
same,glycan array binding signal (z-score),[39],-0.056
same,glycan array binding signal (z-score),[40],0.537
same,glycan array binding signal (z-score),[41],0.754
same,glycan array binding signal (z-score),[42],-0.5
same,glycan array binding signal (z-score),[43],0.227
same,glycan array binding signal (z-score),[44],-0.894
same,glycan array binding signal (z-score),[45],-0.545
same,glycan array binding signal (z-score),[46],0.951
same,glycan array binding signal (z-score),[47],0.387
same,glycan array binding signal (z-score),[48],-0.583
same,glycan array binding signal (z-score),[49],-0.036
same,glycan array binding signal (z-score),[50],1.17
same,glycan array binding signal (z-score),[51],0.225
same,glycan array binding signal (z-score),[52],-0.967
same,glycan array binding signal (z-score),[53],1.02
same,glycan array binding signal (z-score),[54],-0.439
same,glycan array binding signal (z-score),[55],-1.3
same,glycan array binding signal (z-score),[56],-1.34
same,glycan array binding signal (z-score),[57],-1.03
same,glycan array binding signal (z-score),[58],0.239
same,glycan array binding signal (z-score),[59],0.283
same,glycan array binding signal (z-score),[60],0.117

# Part of the list above, as tab-separated lines:
binder	measurement	setting	value
Blon0732mut (Bifidobacterium longum) (protein) MPTSEHKADDATRHLTLIPAPVTLEYTHGTALIGPLVTIEDADQSWETLPIEQLSDELRHRYGVTVLRRRTHGTVISLGLDSRLAHDEYTLDVSESEGIRVRGGGESGLRYGLQTLRQIIGQTSRAIPCLHIQDKPAFAVRAYSLDVTRGRVPTMEFLTWFVDQLALYKYNQFQLYVEHAFAFVELSEAWRGTDPLTAADITYLDEYCARRGIELVPSLATFGHMYMNLRTREHRGLGEFPEDADRPFSFIERMEHHTLNAADPKAHDFASRLIEEYAPLFRSKSFNIGGNETFDLGRGRSAQDAPEAGRDELYAGFVRDLCETLARHGRQPMLWADIALESPRTMDLLPGDITMLNWMYEPQIDESKIQTIATQGRRQFVCPAVRAWSRFFPDYAGAWLNTYHMALAGTKYDAEGMVVTDWGDYGHVNDPRLSVPGLCYGAQNAWNPIEIDAHEMNRRISALVYGDESGRIMDCLARIDSDGVSFPWDLAVQVLELEYGSGTGALNMDVAACMERSSGGKLTLDRTLGCDDARRRMLQWNRERIERRRDCDQVLRDCGDAFAGLDKGGLTAEFLSVMLDGQRLFNELGEELLALADGKDVGSGANRLAADLELWFERYRAQWLSVGRHAELARIAHVVWSLADILRRGAL	glycan array binding signal (z-score)	[7]	2.19
same	glycan array binding signal (z-score)	[10]	2.26
same	glycan array binding signal (z-score)	[40]	0.537
same	glycan array binding signal (z-score)	[46]	0.951

# — the supplement of paper PMC8728848
